# From the supplement of paper PMC6411743
# Sequences of proteins named here, by UniProt entry; tags and fusion partners are left off. A change or cut given only in a name is not applied to a line headed by its entry.
# UniProt Q71F23: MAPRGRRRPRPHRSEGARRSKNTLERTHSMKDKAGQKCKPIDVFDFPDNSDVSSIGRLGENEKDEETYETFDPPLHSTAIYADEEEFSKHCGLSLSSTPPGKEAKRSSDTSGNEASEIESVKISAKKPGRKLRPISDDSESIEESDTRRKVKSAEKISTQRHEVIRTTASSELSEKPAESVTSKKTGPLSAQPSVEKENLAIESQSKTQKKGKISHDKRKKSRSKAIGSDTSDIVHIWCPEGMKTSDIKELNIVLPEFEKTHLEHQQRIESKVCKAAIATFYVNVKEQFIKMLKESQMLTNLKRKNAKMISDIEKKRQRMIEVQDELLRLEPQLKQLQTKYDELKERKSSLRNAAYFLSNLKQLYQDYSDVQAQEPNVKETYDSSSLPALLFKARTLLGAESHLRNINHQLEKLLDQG
# UniProt Q712K3: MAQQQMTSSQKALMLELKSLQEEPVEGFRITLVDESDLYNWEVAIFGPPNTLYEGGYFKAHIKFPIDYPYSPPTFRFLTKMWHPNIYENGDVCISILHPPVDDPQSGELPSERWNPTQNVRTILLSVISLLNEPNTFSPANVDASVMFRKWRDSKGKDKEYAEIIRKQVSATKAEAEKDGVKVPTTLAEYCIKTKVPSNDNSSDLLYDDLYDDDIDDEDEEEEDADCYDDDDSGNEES
# UniProt Q6Y288: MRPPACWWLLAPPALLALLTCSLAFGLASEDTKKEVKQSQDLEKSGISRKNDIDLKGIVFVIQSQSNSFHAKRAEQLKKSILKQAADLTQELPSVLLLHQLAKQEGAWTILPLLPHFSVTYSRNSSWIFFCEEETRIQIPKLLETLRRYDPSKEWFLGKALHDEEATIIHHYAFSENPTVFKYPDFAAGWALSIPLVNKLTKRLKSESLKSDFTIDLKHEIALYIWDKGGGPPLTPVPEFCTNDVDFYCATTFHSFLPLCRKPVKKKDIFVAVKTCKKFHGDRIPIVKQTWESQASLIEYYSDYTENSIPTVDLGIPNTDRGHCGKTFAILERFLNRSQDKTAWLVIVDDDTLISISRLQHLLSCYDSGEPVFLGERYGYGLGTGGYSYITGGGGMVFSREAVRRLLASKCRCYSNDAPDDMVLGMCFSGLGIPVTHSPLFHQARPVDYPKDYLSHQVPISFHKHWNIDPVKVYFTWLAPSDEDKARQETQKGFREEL
# UniProt Q6PIW4: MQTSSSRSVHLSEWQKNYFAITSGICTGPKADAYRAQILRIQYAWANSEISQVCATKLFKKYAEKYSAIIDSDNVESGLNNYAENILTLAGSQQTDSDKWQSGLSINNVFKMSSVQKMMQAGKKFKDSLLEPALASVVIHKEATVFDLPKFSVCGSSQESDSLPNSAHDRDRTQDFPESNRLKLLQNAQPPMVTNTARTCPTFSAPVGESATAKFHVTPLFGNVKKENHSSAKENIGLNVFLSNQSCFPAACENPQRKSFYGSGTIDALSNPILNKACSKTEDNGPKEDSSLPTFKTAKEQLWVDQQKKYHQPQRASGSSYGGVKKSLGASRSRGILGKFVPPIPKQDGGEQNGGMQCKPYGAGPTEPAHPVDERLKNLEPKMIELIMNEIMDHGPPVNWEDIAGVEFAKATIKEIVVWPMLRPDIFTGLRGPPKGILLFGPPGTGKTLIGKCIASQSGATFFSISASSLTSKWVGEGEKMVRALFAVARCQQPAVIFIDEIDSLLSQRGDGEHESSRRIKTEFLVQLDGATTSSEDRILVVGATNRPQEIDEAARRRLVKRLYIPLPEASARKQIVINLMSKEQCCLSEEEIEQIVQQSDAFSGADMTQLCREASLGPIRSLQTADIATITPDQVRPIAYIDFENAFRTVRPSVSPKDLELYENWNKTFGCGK
# UniProt Q6PII3: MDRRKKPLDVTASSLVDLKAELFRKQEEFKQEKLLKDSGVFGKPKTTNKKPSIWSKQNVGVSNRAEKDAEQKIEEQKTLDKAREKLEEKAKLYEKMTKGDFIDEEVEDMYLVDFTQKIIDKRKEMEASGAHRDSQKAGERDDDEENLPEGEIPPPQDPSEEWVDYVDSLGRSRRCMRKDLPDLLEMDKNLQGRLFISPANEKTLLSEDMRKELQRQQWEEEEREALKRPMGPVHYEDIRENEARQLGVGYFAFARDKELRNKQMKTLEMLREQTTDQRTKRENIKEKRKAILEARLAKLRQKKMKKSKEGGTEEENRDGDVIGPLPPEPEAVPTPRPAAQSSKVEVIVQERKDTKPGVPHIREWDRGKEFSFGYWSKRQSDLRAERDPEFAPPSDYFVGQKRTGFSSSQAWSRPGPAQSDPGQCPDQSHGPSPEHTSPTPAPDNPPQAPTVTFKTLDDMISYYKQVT
# UniProt Q86WR0: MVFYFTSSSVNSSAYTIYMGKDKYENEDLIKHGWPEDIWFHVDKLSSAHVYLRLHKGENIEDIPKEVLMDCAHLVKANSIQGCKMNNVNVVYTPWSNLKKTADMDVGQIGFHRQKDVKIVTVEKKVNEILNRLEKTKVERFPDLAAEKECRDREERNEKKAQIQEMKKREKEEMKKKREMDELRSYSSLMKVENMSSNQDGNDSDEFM
# UniProt Q7L266: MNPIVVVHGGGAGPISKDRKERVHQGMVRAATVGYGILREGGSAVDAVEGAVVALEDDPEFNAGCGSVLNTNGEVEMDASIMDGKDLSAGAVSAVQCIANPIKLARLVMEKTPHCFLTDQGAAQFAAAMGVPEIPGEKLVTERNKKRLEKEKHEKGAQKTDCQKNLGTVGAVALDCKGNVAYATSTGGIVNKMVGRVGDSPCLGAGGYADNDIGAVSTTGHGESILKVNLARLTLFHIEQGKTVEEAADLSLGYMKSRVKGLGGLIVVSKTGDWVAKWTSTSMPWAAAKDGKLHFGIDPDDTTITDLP
# UniProt Q7L5N7: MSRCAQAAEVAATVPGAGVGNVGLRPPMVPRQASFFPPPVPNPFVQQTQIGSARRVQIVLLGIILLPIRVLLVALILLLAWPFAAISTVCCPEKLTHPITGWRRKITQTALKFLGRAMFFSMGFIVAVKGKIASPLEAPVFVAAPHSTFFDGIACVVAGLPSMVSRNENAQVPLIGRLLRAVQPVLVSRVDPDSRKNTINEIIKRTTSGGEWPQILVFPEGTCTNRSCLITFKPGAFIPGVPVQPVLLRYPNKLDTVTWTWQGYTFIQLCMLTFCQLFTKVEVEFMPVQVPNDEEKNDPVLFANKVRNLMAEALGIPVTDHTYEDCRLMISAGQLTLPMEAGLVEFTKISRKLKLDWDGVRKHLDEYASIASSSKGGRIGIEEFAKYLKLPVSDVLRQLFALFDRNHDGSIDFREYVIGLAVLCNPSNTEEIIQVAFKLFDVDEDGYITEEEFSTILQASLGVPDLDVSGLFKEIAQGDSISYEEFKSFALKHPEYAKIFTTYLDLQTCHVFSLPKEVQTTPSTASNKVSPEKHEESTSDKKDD
# UniProt Q6UWE0: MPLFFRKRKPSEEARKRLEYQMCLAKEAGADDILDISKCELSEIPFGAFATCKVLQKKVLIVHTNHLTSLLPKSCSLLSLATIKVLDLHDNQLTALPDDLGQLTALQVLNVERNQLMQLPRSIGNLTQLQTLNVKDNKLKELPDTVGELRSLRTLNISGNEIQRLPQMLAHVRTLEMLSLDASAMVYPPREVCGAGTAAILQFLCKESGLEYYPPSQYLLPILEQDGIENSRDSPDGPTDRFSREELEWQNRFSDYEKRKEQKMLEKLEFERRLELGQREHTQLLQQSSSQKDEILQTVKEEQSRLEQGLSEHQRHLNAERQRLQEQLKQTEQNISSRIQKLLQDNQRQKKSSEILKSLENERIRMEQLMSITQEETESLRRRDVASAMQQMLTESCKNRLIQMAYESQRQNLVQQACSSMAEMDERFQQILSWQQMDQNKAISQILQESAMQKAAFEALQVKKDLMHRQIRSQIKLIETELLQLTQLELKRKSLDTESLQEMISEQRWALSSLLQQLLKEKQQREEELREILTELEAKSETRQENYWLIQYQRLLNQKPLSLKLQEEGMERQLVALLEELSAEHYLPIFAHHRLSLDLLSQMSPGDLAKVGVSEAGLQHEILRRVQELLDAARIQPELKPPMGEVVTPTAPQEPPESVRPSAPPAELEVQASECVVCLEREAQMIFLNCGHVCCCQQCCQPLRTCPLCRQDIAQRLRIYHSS
# UniProt Q86Y37: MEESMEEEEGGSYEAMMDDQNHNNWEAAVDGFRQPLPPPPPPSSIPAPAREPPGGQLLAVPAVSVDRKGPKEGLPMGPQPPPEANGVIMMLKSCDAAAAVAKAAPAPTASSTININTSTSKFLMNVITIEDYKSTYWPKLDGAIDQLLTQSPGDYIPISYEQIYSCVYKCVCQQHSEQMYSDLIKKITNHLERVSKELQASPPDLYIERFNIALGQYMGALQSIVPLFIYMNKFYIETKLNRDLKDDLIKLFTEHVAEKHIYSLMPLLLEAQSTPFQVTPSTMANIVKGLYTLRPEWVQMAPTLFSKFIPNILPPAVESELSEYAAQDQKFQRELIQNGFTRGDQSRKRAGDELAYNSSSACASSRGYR
# UniProt Q6PJ69: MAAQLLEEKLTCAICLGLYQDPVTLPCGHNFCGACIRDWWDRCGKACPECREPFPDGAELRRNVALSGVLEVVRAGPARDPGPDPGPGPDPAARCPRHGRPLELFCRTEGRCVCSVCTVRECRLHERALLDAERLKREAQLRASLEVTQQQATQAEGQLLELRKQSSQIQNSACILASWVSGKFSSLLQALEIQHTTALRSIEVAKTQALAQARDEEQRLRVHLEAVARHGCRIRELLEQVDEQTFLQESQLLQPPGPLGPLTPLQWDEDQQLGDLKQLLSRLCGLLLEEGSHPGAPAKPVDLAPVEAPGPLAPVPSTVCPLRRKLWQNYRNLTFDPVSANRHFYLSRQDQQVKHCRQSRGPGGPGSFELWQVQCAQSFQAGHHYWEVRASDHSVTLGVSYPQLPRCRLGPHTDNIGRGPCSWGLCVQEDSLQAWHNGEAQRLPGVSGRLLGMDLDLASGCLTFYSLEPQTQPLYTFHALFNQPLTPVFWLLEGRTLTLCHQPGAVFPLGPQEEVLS
# UniProt Q7Z7L1: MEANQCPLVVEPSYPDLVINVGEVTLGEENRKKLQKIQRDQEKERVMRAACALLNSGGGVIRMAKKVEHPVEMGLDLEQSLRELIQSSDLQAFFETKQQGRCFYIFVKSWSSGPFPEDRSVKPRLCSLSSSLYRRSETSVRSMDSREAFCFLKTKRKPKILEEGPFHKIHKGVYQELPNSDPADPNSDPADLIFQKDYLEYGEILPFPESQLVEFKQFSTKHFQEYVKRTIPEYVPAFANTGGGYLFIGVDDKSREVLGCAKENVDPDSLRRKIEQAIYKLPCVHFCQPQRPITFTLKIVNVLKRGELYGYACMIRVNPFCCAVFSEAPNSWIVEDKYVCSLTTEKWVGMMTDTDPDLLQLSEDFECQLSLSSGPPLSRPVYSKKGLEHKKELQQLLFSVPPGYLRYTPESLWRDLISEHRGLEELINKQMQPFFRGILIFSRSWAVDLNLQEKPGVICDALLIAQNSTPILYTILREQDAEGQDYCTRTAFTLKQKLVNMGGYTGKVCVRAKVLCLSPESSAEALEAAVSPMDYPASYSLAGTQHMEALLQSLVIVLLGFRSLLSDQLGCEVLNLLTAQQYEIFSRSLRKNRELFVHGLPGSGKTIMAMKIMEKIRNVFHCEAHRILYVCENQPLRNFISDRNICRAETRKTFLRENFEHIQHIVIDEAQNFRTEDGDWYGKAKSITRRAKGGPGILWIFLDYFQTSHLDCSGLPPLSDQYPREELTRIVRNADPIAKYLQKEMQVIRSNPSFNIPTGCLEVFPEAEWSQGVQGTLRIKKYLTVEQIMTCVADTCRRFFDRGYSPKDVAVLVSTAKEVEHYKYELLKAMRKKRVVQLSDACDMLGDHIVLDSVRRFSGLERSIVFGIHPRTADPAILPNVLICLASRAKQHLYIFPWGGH
# UniProt Q6UVJ0: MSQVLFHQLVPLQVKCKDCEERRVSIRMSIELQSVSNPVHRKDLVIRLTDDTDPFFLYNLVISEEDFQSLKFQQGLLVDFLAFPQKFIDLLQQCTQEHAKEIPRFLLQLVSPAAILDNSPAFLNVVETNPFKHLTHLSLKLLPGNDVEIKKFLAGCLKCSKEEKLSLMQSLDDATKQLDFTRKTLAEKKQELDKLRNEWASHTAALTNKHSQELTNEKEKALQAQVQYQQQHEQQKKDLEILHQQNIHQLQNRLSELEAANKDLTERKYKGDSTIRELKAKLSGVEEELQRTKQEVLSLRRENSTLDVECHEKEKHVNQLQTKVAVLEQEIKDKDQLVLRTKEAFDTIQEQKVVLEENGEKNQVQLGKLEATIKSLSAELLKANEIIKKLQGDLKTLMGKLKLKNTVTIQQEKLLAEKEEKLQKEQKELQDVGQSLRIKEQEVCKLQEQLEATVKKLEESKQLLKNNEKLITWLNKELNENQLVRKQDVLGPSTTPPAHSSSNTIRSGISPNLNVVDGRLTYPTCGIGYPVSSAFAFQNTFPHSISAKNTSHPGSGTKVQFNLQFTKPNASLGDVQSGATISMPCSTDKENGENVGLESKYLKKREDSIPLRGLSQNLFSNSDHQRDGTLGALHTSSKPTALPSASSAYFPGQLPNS
# ± gives the standard deviation of the averaged measurements. The entries are a selection whose mix differs from that of the whole data set. Most entries show no effect beyond the scatter of the controls.
# Compound: Nc1ncnc2c1ncn2[C@@H]1O[C@H](COP(=O)(O)OP(=O)(O)OP(=O)(O)O)[C@@H](O)[C@H]1O [adenosine triphosphate]
# Assay: NP40-soluble protein abundance relative to vehicle (solubility fold change) (ratio); higher = more soluble protein in presence of ATP
# Settings: concentration: 0.1mM
# Method in brief: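 Crude Jurkat lysate, prepared by Dounce homogenisation, was exposed to eight concentrations from 0.1 to 10 mM for 10 min at room temperature and then 3 min at 37 °C. Solubilisation used 0.8% NP40 with benzonase for 60 min at 4 °C, followed by ultracentrifugation and TMT labelling of the supernatant for LC-MS/MS. After vsn normalisation of intensities, each value is the fold change against the detergent-processed vehicle within each replicate, across three independent experiments.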
row,Target,NP40-soluble protein abundance
1,SESTD1 (UniProt Q86VW0),0.963 ± 0.13
2,UniProt Q86YB8,0.934 ± 0.064
3,AACS (UniProt Q86V21),1.04 ± 0.038
4,UniProt Q71F23,0.981 ± 0.024
5,UniProt Q6ZT12 and related entries,1.02 ± 0.044
6,UniProt Q7Z591 and related entries,1.03 ± 0.072
7,UniProt Q7Z7H8 and related entries,0.991 ± 0.049
8,UniProt Q712K3,0.952 ± 0.03
9,UniProt Q7LBC6,1.02 ± 0.02
10,UniProt Q6Y288,0.983 ± 0.026
11,ANKRD11 (UniProt Q6UB99),0.962 ± 0.01
12,UniProt Q6PJT7-3|Q6PJT7-5|Q6PJT7-9|Q6PJT7,1.057 ± 0.0065
13,NCAPG2 (UniProt Q86XI2),1.04 ± 0.051
14,NUFIP2 (UniProt Q7Z417),1.02 ± 0.13
15,UniProt Q6PIW4 and related entries,1.07 ± 0.022
16,UniProt Q6PII3,1 ± 0.078
17,RPS19BP1 (UniProt Q86WX3),0.979 ± 0.066
18,UniProt Q7Z6L1 and related entries,1.03 ± 0.05
19,UniProt Q7Z4G4 and related entries,1.07 ± 0.17

row,Target,NP40-soluble protein abundance
1,UniProt Q6ZXV5 and related entries,0.937 ± 0.1
2,TTC37 (UniProt Q6PGP7),0.96 ± 0.064
3,CCDC25 (UniProt Q86WR0),1.02 ± 0.039
4,ASRGL1 (UniProt Q7L266),1.02 ± 0.012
5,UniProt Q6ULP2 and related entries,0.997 ± 0.035
6,SAMD1 (UniProt Q6SPF0),0.947 ± 0.081
7,UniProt Q7L099-2|Q7L099-3|Q7L099-4,0.99 ± 0.035
8,UniProt Q86U38,0.94 ± 0.017
9,LPCAT2 (UniProt Q7L5N7),0.967 ± 0.11
10,NFXL1 (UniProt Q6ZNB6),1.04 ± 0.043
11,UniProt Q6UWE0 and related entries,1.05 ± 0.031
12,CACUL1 (UniProt Q86Y37),0.996 ± 0.067
13,TRIM65 (UniProt Q6PJ69),1.07 ± 0.061
14,SLFN11 (UniProt Q7Z7L1),1.09 ± 0.064
15,ZFYVE16 (UniProt Q7Z3T8),1.01 ± 0.013
16,SASS6 (UniProt Q6UVJ0),0.972 ± 0.076
17,PALB2 (UniProt Q86YC2),0.984 ± 0.15
18,UniProt Q7Z4H7 and related entries,1.03 ± 0.013

# Same assay, conditions: concentration: 0.5mM
row,Target,NP40-soluble protein abundance
1,SESTD1 (UniProt Q86VW0),1.01 ± 0.072
2,UniProt Q86YB8,0.963 ± 0.059
3,AACS (UniProt Q86V21),1.01 ± 0.095
4,UniProt Q71F23,0.909 ± 0.19
5,UniProt Q6ZT12 and related entries,1.03 ± 0.042
6,UniProt Q7Z591 and related entries,1.008 ± 0.01
7,UniProt Q7Z7H8 and related entries,1.04 ± 0.038
8,UniProt Q712K3,0.941 ± 0.045
9,UniProt Q7LBC6,1.02 ± 0.06
10,UniProt Q6Y288,0.99 ± 0.068
11,ANKRD11 (UniProt Q6UB99),0.9669 ± 0.0033
12,UniProt Q6PJT7-3|Q6PJT7-5|Q6PJT7-9|Q6PJT7,1.16 ± 0.047
13,NCAPG2 (UniProt Q86XI2),1.02 ± 0.013
14,NUFIP2 (UniProt Q7Z417),1.06 ± 0.082
15,UniProt Q6PIW4 and related entries,1.02 ± 0.093
16,UniProt Q6PII3,0.979 ± 0.058
17,RPS19BP1 (UniProt Q86WX3),1.11 ± 0.091
18,UniProt Q7Z6L1 and related entries,0.976 ± 0.082
19,UniProt Q7Z4G4 and related entries,1.06 ± 0.097

row,Target,NP40-soluble protein abundance
1,UniProt Q6ZXV5 and related entries,0.945 ± 0.08
2,TTC37 (UniProt Q6PGP7),0.967 ± 0.05
3,CCDC25 (UniProt Q86WR0),1.02 ± 0.068
4,ASRGL1 (UniProt Q7L266),1 ± 0.06
5,UniProt Q6ULP2 and related entries,0.991 ± 0.023
6,SAMD1 (UniProt Q6SPF0),0.886 ± 0.059
7,UniProt Q7L099-2|Q7L099-3|Q7L099-4,1 ± 0.061
8,UniProt Q86U38,0.978 ± 0.058
9,LPCAT2 (UniProt Q7L5N7),0.957 ± 0.2
10,NFXL1 (UniProt Q6ZNB6),1 ± 0.061
11,UniProt Q6UWE0 and related entries,1.01 ± 0.045
12,CACUL1 (UniProt Q86Y37),0.974 ± 0.029
13,TRIM65 (UniProt Q6PJ69),1 ± 0.059
14,SLFN11 (UniProt Q7Z7L1),1.09 ± 0.074
15,ZFYVE16 (UniProt Q7Z3T8),0.999 ± 0.024
16,SASS6 (UniProt Q6UVJ0),0.962 ± 0.022
17,PALB2 (UniProt Q86YC2),0.944 ± 0.12
18,UniProt Q7Z4H7 and related entries,1.02 ± 0.037
